Values from PubChem BioAssay AID1259308 (NCATS, 2017).
Screen: 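Candidate targets for better recombinant protein yield in mammalian cells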 (primary screen). Cell system: human HEK293 embryonic kidney cells stably expressing firefly luciferase (HEK-CMV-Luc2-Hygro). Reagents: single siRNA against human genes, 0.8 pmol siRNA per well. Time to read-out: 72 h. Measured: 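Luciferase light (ONE-Glo) measured on one replicate plate set and viability (CellTiter-Glo) on the other, scaled to a negative control siRNA, with robust z-scores and luciferase per cell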. Reading the numbers: total luciferase, z-score and total luciferase, % of control: higher = more reporter protein produced; luciferase per cell, z-score: higher = more reporter output per viable cell; viable cells, % of control: higher = more viable cells. Rule for the call: 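Active when the median/MAD z-score for overall luciferase is greater than 3; a gene was taken forward for validation with new siRNAs if at least two of its three siRNAs passed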. Calls: active = raised luciferase; inactive = no rise.
The whole screen tested about 59,000 reagents; below is a part drawn at random. About 1,510 of them (2.6%) count as active. 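Calls use total luciferase alone and ignore viability, so some active siRNAs may act by altering cell number.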 The numbers tell different reagents against one gene apart.

| gene symbol | siRNA no. | total luciferase, z-score | total luciferase, % of control | luciferase per cell, z-score | viable cells, % of control | activity call |
| --- | --- | --- | --- | --- | --- | --- |
| CATSPERD | 1 | 1.07 | 103 | 0.76 | 94.3 | inactive |
| CATSPERD | 2 | 0.274 | 87.3 | -0.0449 | 98.7 | inactive |
| CATSPERD | 3 | 0.718 | 96.2 | 1.22 | 77.9 | inactive |
| STAB2 | 1 | -0.287 | 76.2 | 0.0873 | 83.2 | inactive |
| STAB2 | 2 | 2.02 | 122 | 1.17 | 100 | inactive |
| STAB2 | 3 | 0.416 | 90.2 | 0.0594 | 99.2 | inactive |
| PDZD11 | 1 | 5.45 | 190 | 4.8 | 60.1 | active |
| PDZD11 | 2 | 0.0664 | 83.2 | -0.496 | 106 | inactive |
| PDZD11 | 3 | -1.42 | 53.7 | -0.915 | 76.4 | inactive |
| CNGA4 | 1 | 0.0841 | 83.6 | 0.282 | 86.7 | inactive |
| CNGA4 | 2 | -1.82 | 45.8 | -1.24 | 70.9 | inactive |
| CNGA4 | 3 | -0.145 | 79 | -1.26 | 123 | inactive |
| LYSMD2 | 1 | -0.0423 | 81 | -0.524 | 104 | inactive |
| LYSMD2 | 2 | -1.64 | 49.3 | -1.75 | 87.3 | inactive |
| LYSMD2 | 3 | -1.39 | 54.3 | -1.1 | 81.1 | inactive |
| ZNF318 | 1 | -1.18 | 58.4 | -1.41 | 94.6 | inactive |
| ZNF318 | 2 | 0.391 | 89.7 | 0.113 | 97.2 | inactive |
| ZNF318 | 3 | 0.594 | 93.7 | -0.221 | 111 | inactive |
| CAPN8 | 1 | -1.6 | 50 | -1.7 | 87.4 | inactive |
| CAPN8 | 2 | 0.534 | 92.5 | 0.187 | 98.4 | inactive |
| CAPN8 | 3 | -0.819 | 65.6 | -0.81 | 90.7 | inactive |
| CAPN8 | 4 | 2.32 | 128 | 1.85 | 87.9 | inactive |
| CAPN8 | 5 | -1.13 | 59.4 | -1.58 | 101 | inactive |
| CAPN8 | 6 | -0.487 | 72.2 | -0.457 | 91 | inactive |
| GCHFR | 1 | 0.208 | 86 | -0.0957 | 98.6 | inactive |
| GCHFR | 2 | -1.18 | 58.3 | -0.0811 | 66.6 | inactive |
| GCHFR | 3 | -0.0797 | 80.3 | -0.543 | 104 | inactive |
| TMX4 | 1 | 2.14 | 125 | 2.2 | 77.9 | inactive |
| TMX4 | 2 | -0.364 | 74.7 | -0.51 | 95.4 | inactive |
| TMX4 | 3 | 0.534 | 92.5 | 0.164 | 99 | inactive |
| CASC3 | 1 | -1.11 | 59.8 | -1.8 | 107 | inactive |
| CASC3 | 2 | -2.88 | 24.6 | -4.28 | 85 | inactive |
| CASC3 | 3 | 0.145 | 84.8 | 0.0239 | 94.1 | inactive |
| GALNT10 | 1 | -0.345 | 75 | 0.561 | 72.3 | inactive |
| GALNT10 | 2 | -0.53 | 71.3 | 0.608 | 67.9 | inactive |
| GALNT10 | 3 | 0.657 | 95 | 0.455 | 94.1 | inactive |
| DND1 | 1 | 0.56 | 93 | 0.909 | 81.8 | inactive |
| DND1 | 2 | 1.19 | 106 | 2.81 | 56.2 | inactive |
| DND1 | 3 | -0.048 | 80.9 | -0.275 | 97.2 | inactive |
| PPP1R12B | 1 | 2.81 | 138 | 3.71 | 58 | inactive |
| PPP1R12B | 2 | -1.52 | 51.6 | -1.45 | 84.4 | inactive |
| PPP1R12B | 3 | -1.14 | 59.2 | -1.45 | 97 | inactive |

Called active, of those listed so far:
| gene symbol | siRNA no. | total luciferase, z-score | total luciferase, % of control | luciferase per cell, z-score | viable cells, % of control | activity call |
| --- | --- | --- | --- | --- | --- | --- |
| PDZD11 | 1 | 5.45 | 190 | 4.8 | 60.1 | active |

Next reagents:
| gene symbol | siRNA no. | total luciferase, z-score | total luciferase, % of control | luciferase per cell, z-score | viable cells, % of control | activity call |
| --- | --- | --- | --- | --- | --- | --- |
| ENAH | 1 | 2.22 | 126 | 2.01 | 82.9 | inactive |
| ENAH | 2 | 0.387 | 89.6 | 1.36 | 70 | inactive |
| ENAH | 3 | -0.252 | 76.9 | -0.344 | 94 | inactive |
| RIIAD1 | 1 | -0.489 | 72.2 | -1.12 | 108 | inactive |
| RIIAD1 | 2 | 0.974 | 101 | 0.863 | 90.2 | inactive |
| RIIAD1 | 3 | -0.505 | 71.8 | -1.18 | 110 | inactive |
| ALG5 | 1 | 0.0556 | 83 | -0.385 | 103 | inactive |
| ALG5 | 2 | 0.458 | 91 | 0.781 | 82.8 | inactive |
| ALG5 | 3 | -0.85 | 65 | 0.213 | 68.6 | inactive |
| PRR12 | 1 | -0.508 | 71.8 | -0.403 | 89.2 | inactive |
| PRR12 | 2 | -0.33 | 75.3 | 0.319 | 77.4 | inactive |
| PRR12 | 3 | 2.29 | 127 | 1.97 | 84.6 | inactive |
| ANKRD36BP2 | 1 | -0.482 | 72.3 | -0.932 | 103 | inactive |
| ANKRD36BP2 | 2 | -0.849 | 65 | -0.739 | 88.2 | inactive |
| ANKRD36BP2 | 3 | -0.688 | 68.2 | 0.238 | 71.6 | inactive |
| IFIT5 | 1 | -1.11 | 59.9 | -1.09 | 89 | inactive |
| IFIT5 | 2 | 1.51 | 112 | 1.42 | 86 | inactive |
| IFIT5 | 3 | 2.68 | 135 | 3.41 | 61.5 | inactive |
| MTSS1 | 1 | -0.37 | 74.5 | -0.32 | 90.6 | inactive |
| MTSS1 | 2 | 1.97 | 121 | 1.67 | 87.2 | inactive |
| MTSS1 | 3 | -0.595 | 70.1 | -0.559 | 90.7 | inactive |
| B4GALT1 | 1 | -0.558 | 70.8 | -0.627 | 93.3 | inactive |
| B4GALT1 | 2 | 0.0522 | 82.9 | 0.522 | 80.8 | inactive |
| B4GALT1 | 3 | -1.22 | 57.5 | -0.313 | 69.8 | inactive |
| TAF1 | 1 | -0.718 | 67.6 | 0.0216 | 75.1 | inactive |
| TAF1 | 2 | -0.505 | 71.8 | -0.888 | 101 | inactive |
| TAF1 | 3 | 2.04 | 122 | 1.34 | 96.2 | inactive |
| LMAN2L | 1 | 0.816 | 98.1 | 0.899 | 86.5 | inactive |
| LMAN2L | 2 | -0.195 | 78 | 0.578 | 74.9 | inactive |
| LMAN2L | 3 | 0.0849 | 83.6 | -0.0106 | 93.7 | inactive |
| DPEP2 | 1 | 0.15 | 84.9 | -0.801 | 117 | inactive |
| DPEP2 | 2 | -2.56 | 31 | -2.86 | 73.7 | inactive |
| DPEP2 | 3 | -1.06 | 60.8 | -0.356 | 74.6 | inactive |
